{"source": "PubChem BioAssay AID248", "about": "(DTP/NCI, 2004)", "test_system": "L1210 leukemia ip in BDF1 mice, survival T/C", "experiment": "NCI In Vivo Anticancer Drug Screen. Data for tumor model L1210 Leukemia (intraperitoneal) in B6D2F1 (BDF1) mice", "conditions": "T/C endpoint: mean survival time, higher T/C = longer survival", "key": {"[1]": {"conditions": "dose: 100.0 mg/kg/injection, schedule: Q04DX003 (ip), vehicle: saline with Tween-80"}, "[2]": {"conditions": "dose: 400.0 mg/kg/injection, schedule: Q04DX003 (ip), vehicle: saline with Tween-80"}, "[3]": {"conditions": "dose: 400.0 mg/kg/injection, schedule: Q04DX003 (ip), vehicle: Klucel (hydroxypropylcellulose) (HPC)"}}, "note": "The list does not hold the whole screen: it gathers tests that were run many times, whatever their T/C, doses with no T/C, and many T/C values between a quarter and a half above the control. Further doses and runs are listed elsewhere. T/C: endpoint of the treated group in % of that of the vehicle group. Some doses have a count of surviving animals in place of a T/C: the source holds a T/C of zero for them, seemingly a mark for toxic or unscored doses. Some survivor counts are full or nearly so, which does not show that the dose was tolerated: the source hardly ever lists a survival T/C far under the control, and the zero likely stands for such cases as well. Survivors were counted at the toxicity check, usually on the fifth day, unless a day is given; later deaths do not show. Schedule codes are those of the source, taken here to give the interval after Q, in days (D) or hours (H), and the number of doses after X. Some molecules as drawn cover several salts, stereoisomers or complexes of the source; a dose is that of the sample tested. For survival time, the PubChem record calls one and a half times the control and up active, and a quarter to a half above the control has no call in these data; cut-offs in other NCI protocols can differ. Some entries hold several experiments; the values are given in rising order. Some T/C values carry the count of animals alive at the toxicity check (mostly the fifth day); without a count, all were alive then.", "data": [{"smiles": "COc1cccc2c1C(=O)c1c(O)c3c(c(O)c1C2=O)C[C@@](O)(/C(C)=N\\NC(N)=O)C[C@@H]3OC1CC(N)C(O)C(C)O1", "note": "(stereo not given in full)", "values": [{"measurement": "T/C", "setting": "dose: 8.0 mg/kg/injection, schedule: Q04DX003 (ip), vehicle: water", "result": "135 % of control"}, {"measurement": "T/C", "setting": "dose: 12.0 mg/kg/injection, schedule: Q01DX009 (ip), vehicle: saline", "result": "133 % of control"}, {"measurement": "T/C", "setting": "dose: 16.0 mg/kg/injection, schedule: Q04DX003 (ip), vehicle: saline", "result": "131 % of control [5 of 6 alive]"}, {"measurement": "T/C", "setting": "dose: 16.0 mg/kg/injection, schedule: Q04DX003 (ip), vehicle: water", "result": "137 and 144 % of control"}, {"measurement": "T/C", "setting": "dose: 25.0 mg/kg/injection, schedule: Q01DX009 (ip), vehicle: saline", "result": "136 % of control"}, {"measurement": "T/C", "setting": "dose: 25.0 mg/kg/injection, schedule: Q04DX003 (ip), vehicle: saline", "result": "149 % of control"}, {"measurement": "T/C", "setting": "dose: 32.0 mg/kg/injection, schedule: Q04DX003 (ip), vehicle: saline", "result": "132 % of control"}, {"measurement": "T/C", "setting": "dose: 32.0 mg/kg/injection, schedule: Q04DX003 (ip), vehicle: water", "result": "139 % of control"}, {"measurement": "survivor count", "setting": "dose: 50.0 mg/kg/injection, schedule: Q01DX009 (ip), vehicle: saline", "result": "7 of 10"}, {"measurement": "T/C", "setting": "dose: 64.0 mg/kg/injection, schedule: Q04DX003 (ip), vehicle: saline", "result": "135 % of control"}, {"measurement": "T/C", "setting": "dose: 64.0 mg/kg/injection, schedule: Q04DX003 (ip), vehicle: water", "result": "133 % of control"}, {"measurement": "survivor count", "setting": "dose: 100.0 mg/kg/injection, schedule: Q04DX003 (ip), vehicle: saline", "result": "0 of 6"}]}, {"smiles": "CCOC(=O)c1cn[nH]c1/N=N/N(C)C", "values": [{"measurement": "T/C", "setting": "dose: 72.0 mg/kg/injection, schedule: Q01DX009 (ip), vehicle: carboxymethylcellulose (CMC)", "result": "126 % of control"}, {"measurement": "T/C", "setting": "dose: 120.0 mg/kg/injection, schedule: Q01DX009 (ip), vehicle: carboxymethylcellulose (CMC)", "result": "134 % of control"}, {"measurement": "T/C", "setting": "dose: 200.0 mg/kg/injection, schedule: Q01DX009 (ip), vehicle: carboxymethylcellulose (CMC)", "result": "135 % of control [4 of 6 alive]"}, {"measurement": "T/C", "setting": "dose: 400.0 mg/kg/injection, schedule: Q01DX001 (ip), vehicle: carboxymethylcellulose (CMC)", "result": "141 % of control"}, {"measurement": "T/C", "setting": "dose: 600.0 mg/kg/injection, schedule: Q01DX001 (ip), vehicle: carboxymethylcellulose (CMC)", "result": "129 % of control"}]}, {"smiles": "CC(C)c1ccccc(=O)c1O.CC(C)c1ccccc(=O)c1O.[Cu]", "values": [{"measurement": "survivor count", "setting": "[1]", "result": "6 of 6"}, {"measurement": "survivor count", "setting": "[2]", "result": "5 of 6"}]}, {"smiles": "O=C(CC(O)(C(F)(F)F)C(F)(F)F)CC(O)(C(F)(F)F)C(F)(F)F", "values": [{"measurement": "survivor count", "setting": "dose: 1.0 mg/kg/injection, schedule: Q01DX009 (ip), vehicle: other", "result": "3 of 6"}, {"measurement": "survivor count", "setting": "dose: 4.0 mg/kg/injection, schedule: Q04DX003 (ip), vehicle: other", "result": "2 of 6"}, {"measurement": "survivor count", "setting": "dose: 6.25 mg/kg/injection, schedule: Q04DX003 (ip), vehicle: other", "result": "1 of 6"}, {"measurement": "survivor count", "setting": "dose: 10.0 mg/kg/injection, schedule: Q01DX009 (ip), vehicle: saline with Tween-80", "result": "0 of 6"}, {"measurement": "survivor count", "setting": "dose: 12.5 mg/kg/injection, schedule: Q04DX003 (ip), vehicle: other", "result": "0 of 6"}]}, {"smiles": "COC(=O)CCC(NC(=O)OCc1ccccc1)C(=O)O", "note": "(stereo not given)", "values": [{"measurement": "survivor count", "setting": "[3]", "result": "0 of 6"}]}, {"smiles": "CCCCCCCCCCCc1cc(=O)n(-c2ccccc2)n1C", "values": [{"measurement": "survivor count", "setting": "[1]", "result": "3 of 6"}, {"measurement": "survivor count", "setting": "[2]", "result": "3 of 6"}]}, {"smiles": "c1ccc2c(c1)C[n+]1ccccc1-2", "values": [{"measurement": "survivor count", "setting": "dose: 150.0 mg/kg/injection, schedule: Q01DX001 (ip), vehicle: other", "result": "0 of 6"}, {"measurement": "survivor count", "setting": "dose: 300.0 mg/kg/injection, schedule: Q01DX001 (ip), vehicle: other", "result": "0 of 6"}]}, {"smiles": "CCc1c[n+](CC(=O)c2ccc([N+](=O)[O-])cc2)ccc1C", "values": [{"measurement": "survivor count", "setting": "dose: 100.0 mg/kg/injection, schedule: Q01DX009 (ip), vehicle: saline with Tween-80", "result": "2 of 6"}, {"measurement": "survivor count", "setting": "dose: 200.0 mg/kg/injection, schedule: Q01DX009 (ip), vehicle: saline with Tween-80", "result": "0 of 6"}, {"measurement": "survivor count", "setting": "dose: 400.0 mg/kg/injection, schedule: Q01DX009 (ip), vehicle: saline with Tween-80", "result": "0 of 6"}]}, {"smiles": "O=c1[nH]c(-c2ccc(O)cc2)nc2[nH]ncc12", "values": [{"measurement": "survivor count", "setting": "[3]", "result": "6 of 6"}]}, {"smiles": "O=c1[nH]c2ccccc2n1C1CCN(CCCC(c2ccc(F)cc2)c2ccc(F)cc2)CC1", "values": [{"measurement": "survivor count", "setting": "dose: 50.0 mg/kg/injection, schedule: Q01DX009 (ip), vehicle: Klucel (hydroxypropylcellulose) (HPC)", "result": "5 of 6"}, {"measurement": "survivor count", "setting": "dose: 200.0 mg/kg/injection, schedule: Q01DX009 (ip), vehicle: Klucel (hydroxypropylcellulose) (HPC)", "result": "6 of 6"}]}]}
